Sequences and labels used below:
B1: Q65A3 (VHH, not shown: small tags and cut ends)
VHH: EVQLVESGGGLVQPGGSLRPSCTTSGLDFGIHWMYWFRQAPGKELEWVAEINTNALITKYADSVKGRFTISRDNAKNTLFLQMNDLKSEDTAVYYCSNTQNGAAKGQGVQVTVSS
B2: Q62F10 (VHH, not shown: small tags and cut ends)
VHH: EVQLVESGGGLVQPGGSLRLSCVASGFDFNIHWMYWVRQAPGKELEWVAEINTNGLITVYPDSVKGRFTISRDNAKNTLFLQMNNLKFEDTAVYYCTNTQNGKTKGQGTQVTVSS
B3: Q65E12 (VHH, not shown: small tags and cut ends)
VHH: EVQLVESGGGLVQPGGSLRLSCSASGFDFSIHWMYWVRQAPGKELEWVAEINTNGLITLYADSVKGRFTASRDNAKNALFLQMNDLKFEDTAVYYCAKSRNGAAGGQGTQVTVSS

Chains of the proteins cited; added tags and fusions are not shown. Lines headed by an entry give the natural chain unless they say otherwise; changes in a name come on top.
UniProt P01375: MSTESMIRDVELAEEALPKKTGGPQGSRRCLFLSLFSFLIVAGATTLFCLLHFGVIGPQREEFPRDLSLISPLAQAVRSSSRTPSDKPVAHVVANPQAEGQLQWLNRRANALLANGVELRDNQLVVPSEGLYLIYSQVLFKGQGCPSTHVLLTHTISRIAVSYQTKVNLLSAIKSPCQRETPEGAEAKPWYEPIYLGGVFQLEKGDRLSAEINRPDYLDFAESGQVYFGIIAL

No constants are given. Whether binding was seen depends on the method and setting. Some binding calls cover weakened binding; strength is not graded here.

For the assay, the target named is soluble human TNF-alpha (human) (UniProt P01375). The assay is described as follows: competition ELISA, adalimumab coated, human TNF-alpha with VHH; competitor adalimumab.
B1: the binding result is “binds”. The same measure for B2: “binds”. The same measure for B3: “binds”.

Source of the values: patent US20200317769A1.
